No constants are given. Whether binding was seen depends on the method and setting. Binding seen in cells or lysates may run through a third protein. Some binding calls cover weakened binding; strength is not graded here. For some assays here: Tags and fused reporters may be left off the sequences shown. One block for each molecule: values may come before it.
Experiments:
[1] = molecular target: T1, HRPK-1 (C. elegans (endogenous in mixed stage animals)) (UniProt P91277); test: co-IP; HRPK-1 IP as a1, lysates incubated with RNAse A (20 ug/ml) prior to and during the IP; Western blot for ALG-1
T1 sequence: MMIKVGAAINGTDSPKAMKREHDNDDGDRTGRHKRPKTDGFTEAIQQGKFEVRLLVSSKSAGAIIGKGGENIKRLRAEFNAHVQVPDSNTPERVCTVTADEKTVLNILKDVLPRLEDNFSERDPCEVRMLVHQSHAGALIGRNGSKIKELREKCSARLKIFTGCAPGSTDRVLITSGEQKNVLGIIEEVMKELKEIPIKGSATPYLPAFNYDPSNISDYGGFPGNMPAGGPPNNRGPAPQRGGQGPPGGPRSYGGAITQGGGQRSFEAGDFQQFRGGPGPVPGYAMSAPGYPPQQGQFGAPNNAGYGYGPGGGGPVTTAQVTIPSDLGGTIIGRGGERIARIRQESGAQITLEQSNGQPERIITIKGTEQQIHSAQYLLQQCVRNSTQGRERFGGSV

Protein sequences, listed by entry. Tags and fused reporters are not part of them.
UniProt G5EES3: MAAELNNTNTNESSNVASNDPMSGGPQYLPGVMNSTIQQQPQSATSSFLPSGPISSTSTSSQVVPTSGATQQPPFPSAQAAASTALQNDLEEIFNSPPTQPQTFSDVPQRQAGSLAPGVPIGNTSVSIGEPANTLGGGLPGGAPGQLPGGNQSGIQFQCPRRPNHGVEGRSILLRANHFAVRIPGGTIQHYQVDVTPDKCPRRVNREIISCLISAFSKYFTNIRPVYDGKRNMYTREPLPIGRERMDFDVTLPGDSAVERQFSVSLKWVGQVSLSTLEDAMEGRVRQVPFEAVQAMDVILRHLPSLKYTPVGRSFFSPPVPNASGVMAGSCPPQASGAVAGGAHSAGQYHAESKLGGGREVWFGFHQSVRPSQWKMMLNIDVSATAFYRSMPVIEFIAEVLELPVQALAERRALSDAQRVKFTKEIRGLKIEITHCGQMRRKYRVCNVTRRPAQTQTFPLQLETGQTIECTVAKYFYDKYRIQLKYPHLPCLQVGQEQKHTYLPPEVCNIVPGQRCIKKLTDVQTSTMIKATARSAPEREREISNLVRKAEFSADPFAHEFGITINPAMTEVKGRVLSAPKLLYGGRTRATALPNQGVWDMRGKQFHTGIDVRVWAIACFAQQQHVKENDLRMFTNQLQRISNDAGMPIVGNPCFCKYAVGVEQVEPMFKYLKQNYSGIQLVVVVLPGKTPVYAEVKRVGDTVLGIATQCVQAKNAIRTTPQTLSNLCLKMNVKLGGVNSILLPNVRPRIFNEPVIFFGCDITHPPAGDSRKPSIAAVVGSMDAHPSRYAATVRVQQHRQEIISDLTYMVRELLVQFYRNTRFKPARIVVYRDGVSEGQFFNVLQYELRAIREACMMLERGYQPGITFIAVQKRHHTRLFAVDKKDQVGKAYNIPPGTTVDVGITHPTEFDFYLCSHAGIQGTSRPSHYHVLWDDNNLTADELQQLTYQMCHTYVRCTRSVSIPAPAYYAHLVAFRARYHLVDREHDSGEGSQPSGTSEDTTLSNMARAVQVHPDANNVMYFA

[2] = molecular target: ALG-1 (C. elegans (endogenous in mixed stage animals)) (UniProt G5EES3); test: co-IP; ALG-1 IP from worm extract, Protein A Dynabeads; Western blot; wild type and hrpk-1 mutant animals for AIN-1

binding [1]: binds
Molecule: ALG-1 (from UniProt G5EES3 1-1023)

binding [2]: no binding
B1: HRP-1 (protein, UniProt Q22037 1-346)
chain: MTDVEIKAENGSGDASLEPENLRKIFVGGLTSNTTDDLMREFYSQFGEITDIIVMRDPTTKRSRGFGFVTFSGKTEVDAAMKQRPHIIDGKTVDPKRAVPRDDKNRSESNVSTKRLYVSGVREDHTEDMLTEYFTKYGTVTKSEIILDKATQKPRGFGFVTFDDHDSVDQCVLQKSHMVNGHRCDVRKGLSKDEMSKAQMNRDRETRGGRSRDGQRGGYNGGGGGGGGWGGPAQRGGPGAYGGPGGGGQGGYGGDYGGGWGQQGGGGQGGWGGPQQQQGGGGWGQQGGGGQGGWGGPQQQQQGGWGGPQQGGGGGGWGGQGQQQGGWGGQSGAQQWAHAQGGNRNY

From publication PMC6795461
